PMC7884425
Residue numbers refer to the chain shown, from its start. Names may count otherwise. These are yes or no findings as the source states them, for the method shown. For some of these results: Where a sequence is shown, tags or fusion partners need not be part of it.

The chains behind the UniProt entries cited, without tags or fusion partners. Where a name states a change or a piece, a line headed by the entry shows the natural chain unless it says otherwise. Residues count along the entry.
human PARP1 CAT domain, full-length CAT (residues 661-1014) (P09874, residues 661-1014): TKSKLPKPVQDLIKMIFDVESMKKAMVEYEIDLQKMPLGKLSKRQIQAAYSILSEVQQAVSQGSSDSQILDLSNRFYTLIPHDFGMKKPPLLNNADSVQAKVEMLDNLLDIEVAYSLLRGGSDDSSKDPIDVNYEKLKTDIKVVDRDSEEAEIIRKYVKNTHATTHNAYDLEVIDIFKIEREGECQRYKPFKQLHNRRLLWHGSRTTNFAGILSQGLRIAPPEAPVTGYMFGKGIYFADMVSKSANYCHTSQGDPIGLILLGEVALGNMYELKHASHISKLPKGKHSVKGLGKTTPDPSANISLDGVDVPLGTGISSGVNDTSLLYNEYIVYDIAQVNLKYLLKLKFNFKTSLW

B1: human HPF1 (histone PARylation factor 1), wild-type (protein, UniProt Q9NWY4 1-346)
chain: MVGGGGKRRPGGEGPQCEKTTDVKKSKFCEADVSSDLRKEVENHYKLSLPEDFYHFWKFCEELDPEKPSDSLSASLGLQLVGPYDILAGKHKTKKKSTGLNFNLHWRFYYDPPEFQTIIIGDNKTQYHMGYFRDSPDEFPVYVGINEAKKNCIIVPNGDNVFAAVKLFLTKKLREITDKKKINLLKNIDEKLTEAARELGYSLEQRTVKMKQRDKKVVTKTFHGAGLVVPVDKNDVGYRELPETDADLKRICKTIVEAASDEERLKAFAPIQEMMTFVQFANDECDYGMGLELGMDLFCYGSHYFHKVAGQLLPLAYNLLKRNLFAEIIEEHLANRSQENIDQLAA
B2: human HPF1 F268S (protein, UniProt Q9NWY4 1-346)
chain: B1 chain with F268S
B3: human HPF1 D283H (protein, UniProt Q9NWY4 1-346)
chain: B1 chain with D283H

Legend:
[1] = molecular target: human PARP1 CAT domain, full-length CAT (residues 661-1014) (human) (UniProt P09874); assay: ITC; HPF1 wild-type or mutant 0.3 or 0.4 mM in the syringe, PARP1 CAT-ΔHD (or full-length CAT) 0.02 mM in the cell; 25 °C; 20 mM Tris-pH 8.0, 150 mM NaCl, 1 mM TCEP, 1 mM MgCl2; both purified
[2] = molecular target: human PARP1 CAT domain, full-length CAT (residues 661-1014) (human) (UniProt P09874); assay: SEC; 100 μL samples with 50 μM of each protein, on ice at least 30 min; Superdex 200 Increase; 20 mM Tris-pH 8.0, 150 mM NaCl, 1 mM TCEP, 1 mM MgCl2; peak fractions on SDS-PAGE; both purified
[3] = molecular target: human PARP1-CAT ΔHD (661-678-GSGSGSGG-787-1014) (human) (UniProt P09874); assay: condition: 0.3 or 0.4 mM HPF1 in the syringe, 0.02 mM PARP1 CAT-ΔHD in the cell; ITC; HPF1 wild-type or mutant 0.3 or 0.4 mM in the syringe, PARP1 CAT-ΔHD (or full-length CAT) 0.02 mM in the cell; 25 °C; 20 mM Tris-pH 8.0, 150 mM NaCl, 1 mM TCEP, 1 mM MgCl2; both purified

Binder | binding [1] | binding [2] | binding [3]
B1 | no binding | no binding (tested: 50 μM of each protein) | 
B2 |  |  | no binding
B3 |  |  | no binding
